Values of other authors as cited in patent publication US20110208161A1, “INT[…] […] TO THE CENTRAL NERVOUS SYSTEM” (priority 2009, published 2011).

Settings: administration to the lateral ventricle, dose 0.01 mg/kg; patients with severe intractable cancer pain

In the case of `CN1CC[C@]23c4c5ccc(O)c4O[C@H]2[C@@H](O)C=C[C@H]3[C@H]1C5.Cl` [morphine hydrochloride], the “duration of analgesic effect” value is listed as “about 24 hours”.
